{"source": "PubChem BioAssay AID624291", "about": "(National Center for Advancing Translational Sciences (NCATS), 2012)", "note": "Hit rate of the full screen: of about 350,000 compounds, about 220 (0.063%) were called active. The shares of active, inactive and inconclusive entries below differ from those in the screen. Calls come from the whole dose curve; as a rule, active = well fitted activation curve with a large enough effect; inconclusive = small, poorly fitted or top-dose-only effect; inactive = no such curve, though single readings can be large or run the other way. Potencies beside an inconclusive call are fits to weak or partial responses and may not hold up. Potency is the fitted concentration of half-maximal effect.", "data": [{"test": "qHTS for Activators of Integrin-Mediated Alleviation for Muscular Dystrophy; note: nearly all actives have a fitted effect of over 60% in size;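 for activation: 100% = response of the positive control SU9516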", "conditions": "alpha7betagal myoblasts, beta-gal FDG fluorescence, 48 h; activation: at 38.3 µM (top of the series)", "procedure,_shortened": "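Alpha7betagal+/- myoblasts (passage 13) were plated 16-24 hr, then exposed to compounds (1:260 dilution of DMSO stock) for 48 hours at 37C. After MPER lysis, β-galactosidase reporter activity was read as FDG fluorescence (ex 480/em 540) after 30 minutes.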", "values": [{"smiles": "Cc1c(O)ccc2c(CC(=O)N[C@@H](Cc3ccc(O)cc3)C(=O)O)cc(=O)oc12", "Potency": "inconclusive: 28.2 µM [activator, single point]"}, {"smiles": "Cc1ccc(-c2nnn(CC(=O)N(c3ccccc3)C(C(=O)NCC3CCCO3)c3ccc(F)cc3)n2)o1", "note": "(stereo unspecified)", "Potency": "inactive"}, {"smiles": "S=c1[nH]nc(-c2ccc(Br)o2)n1Cc1ccccc1", "Potency": "inactive"}, {"smiles": "CCOc1ccc2nc(SCC(=O)NCc3ccc(S(N)(=O)=O)cc3)sc2c1", "Potency": "inconclusive: 0.501 µM [activator, full curve, poor fit]"}, {"smiles": "O=C(CSCc1ccccc1)Nc1cccc(C(=O)Nc2ccc(C(=O)O)cc2)c1", "Potency": "inactive"}, {"smiles": "O=C(COc1ccccc1)Nc1ccc(N2CCCCC2)cc1", "Potency": "inconclusive: 1 µM [activator, full curve, poor fit]"}, {"smiles": "Cc1nc2ccc(NC(=O)Cc3cccc(F)c3)cc2s1", "Potency": "inconclusive: 15.8 µM [activator, partial curve, poor fit]"}, {"smiles": "O=S(=O)(c1ccc(Br)cc1)N1CCN=C1SCc1cccc(F)c1", "Potency": "inconclusive: 28.2 µM [activator, single point]"}, {"smiles": "CCC(=O)N1CCc2cc(S(=O)(=O)CCC(=O)N3CCN(c4ccc(C(C)=O)cc4)CC3)ccc21", "Potency": "inconclusive: 3.55 µM [activator, single point]"}, {"smiles": "CC1CCCC(NC(=O)CSc2ccc(F)cc2)C1C", "note": "(stereo unspecified)", "Potency": "inactive"}, {"smiles": "CCc1cc(=O)oc2cc(C)cc(OC(C)C(=O)NCCCN3CCOCC3)c12", "note": "(stereo unspecified)", "Potency": "inconclusive: 1.12 µM [activator, partial curve, poor fit]"}, {"smiles": "CCOC(=O)C(Cc1ccc(O)cc1)NC(=O)CNC(=O)C1CCCN1C(=O)OC(C)(C)C", "note": "(stereo unspecified)", "Potency": "inconclusive: 28.2 µM [activator, single point]"}, {"smiles": "COc1ccc(OC)c(-c2nn(-c3ccccc3)cc2C(=O)N2CCc3ccccc3C2)c1", "Potency": "inactive"}, {"smiles": "N/C(Cc1ccc([N+](=O)[O-])cc1)=N\\OC(=O)c1cccc(Br)c1", "Potency": "inconclusive: 11.2 µM [activator, single point]"}, {"smiles": "CCCCN(C(=O)c1ccc(S(=O)(=O)N(CC)CC)cc1)c1c(N)n(CCC)c(=O)[nH]c1=O", "Potency": "inconclusive: 11.2 µM [activator, partial curve, poor fit]"}, {"smiles": "CCCCn1c(NC(=O)c2ccc(Br)o2)c(S(=O)(=O)c2ccccc2)c2nc3ccccc3nc21", "Potency": "inactive"}, {"smiles": "N#Cc1ncc(Cc2ccccc2)nc1C#N", "Potency": "inactive"}, {"smiles": "c1ccc(-c2n[nH]c(-c3ccccc3)c2-c2nc3ccccc3[nH]2)cc1", "Potency": "inactive"}, {"smiles": "O=C(Nc1ccccc1-c1nnc(SCc2ccccc2Cl)o1)c1ccccc1", "Potency": "inactive"}, {"smiles": "CNC(=O)c1[nH]cnc1C(=O)Nc1cccc(OC)c1", "Potency": "inconclusive: 12.6 µM [activator, partial curve, poor fit]"}, {"smiles": "O=C(CSc1n[nH]c(-c2ccco2)n1)Nc1ccccc1Cl", "Potency": "inconclusive: 14.1 µM [activator, single point]"}, {"smiles": "C/C(=N/NS(=O)(=O)c1cccc([N+](=O)[O-])c1)c1ccc2c(c1)OCO2", "Potency": "inconclusive: 20 µM [activator, single point]"}, {"smiles": "CCCCN(CCCC)CCNC(=O)c1cn(C)c2ccc(S(=O)(=O)N3CCCC3)cc2c1=O", "Potency": "inconclusive: 3.16 µM [activator, partial curve, poor fit]"}, {"smiles": "Cc1ccc(CS/C(Nc2ccccc2C)=C(\\C#N)C(N)=O)c(C)c1", "Potency": "inconclusive: 28.2 µM [activator, single point]"}, {"smiles": "COc1cc(C(=O)O/N=C(\\N)c2cccc([N+](=O)[O-])c2)cc(OC)c1OC", "Potency": "inconclusive: 28.2 µM [activator, single point]"}, {"smiles": "Cc1ccc(S(=O)(=O)N2CCCCC2)cc1NC(=O)[C@@H]1CCCN1C(=O)c1cccs1", "Potency": "inconclusive: 14.1 µM [activator, single point]"}, {"smiles": "CCOc1ccc(Nc2nc(N)nc(CN3CCN(c4ccccc4F)CC3)n2)cc1", "Potency": "inactive"}, {"smiles": "Cc1cc(NC(=O)Cn2nnc3sc4c(c3c2=O)CCC(C(C)(C)C)C4)no1", "note": "(stereo unspecified)", "Potency": "inactive"}, {"smiles": "Cc1ccc(C)c(-c2csc(NC(=O)c3c(C)noc3C)n2)c1", "Potency": "inconclusive: 20 µM [activator, single point]"}, {"smiles": "COc1ccc(C)cc1S(=O)(=O)N(C)CC(=O)NC1CCCC1", "Potency": "inconclusive: 28.2 µM [activator, single point]"}, {"smiles": "CCOC(=O)c1ccc(NC(=S)N(CCCN(CC)CC)Cc2ccco2)cc1", "Potency": "inconclusive: 4.47 µM [activator, single point]"}, {"smiles": "N#CC1(NC(=O)CN2C(=O)NC3(CCCCCC3)C2=O)CCCCC1", "Potency": "inactive"}, {"smiles": "CN(CC(=O)Nc1ccccc1Cl)C(=O)COc1cccc2c1OC(C)(C)C2", "Potency": "inconclusive: 0.501 µM [activator, full curve, poor fit]"}, {"smiles": "COc1ccc(-c2cc(=O)oc3cc(OC(=O)C4CCCCC4)c(Cl)cc23)cc1", "Potency": "inconclusive: 11.2 µM [activator, partial curve, poor fit]"}, {"smiles": "CC(=O)OCCN1CCN(C(=O)CN2C(=O)NC(c3ccccc3)(c3ccccc3)C2=O)CC1", "Potency": "inconclusive: 2.82 µM [activator, single point]"}, {"smiles": "CCOc1ccc2ccccc2c1C1NC(=O)NC(C)=C1C(=O)OCCOC", "note": "(stereo unspecified)", "Potency": "inconclusive: 0.398 µM [activator, partial curve, poor fit]"}, {"smiles": "O=C(NCC(=O)N1CCN(S(=O)(=O)c2ccc3c(c2)OCCO3)CC1)c1ccccc1F", "Potency": "inconclusive: 31.6 µM [activator, partial curve, poor fit]"}, {"smiles": "Cc1ccc(NC(=O)COc2ccccc2C(=O)NCCc2ccccc2)cc1", "Potency": "inconclusive: 28.2 µM [activator, single point]"}, {"smiles": "CCC1Oc2ccc(C)cc2N(CC(=O)NCc2ccccc2OC)C1=O", "note": "(stereo unspecified)", "Potency": "inconclusive: 4.47 µM [activator, partial curve, poor fit]"}, {"smiles": "COc1cc(CNC(C)C23CC4CC(CC(C4)C2)C3)cc(OC)c1OC", "note": "(stereo unspecified)", "Potency": "inconclusive: 11.2 µM [activator, single point]"}, {"smiles": "O=C1CC(NC(=O)C(F)(F)F)=NN1c1ccccc1", "Potency": "inactive"}, {"smiles": "Cn1c(CNC(=O)CCNC(=O)c2ccccc2)cc(=O)n(C)c1=O", "Potency": "inconclusive: 5.01 µM [activator, single point]"}, {"smiles": "COc1ccc(OC)c(NC(=O)CCN2CC(C)OC(C)C2)c1", "note": "(stereo unspecified)", "Potency": "inactive"}, {"smiles": "COC(=O)CCC(=O)Nc1sc(C)c(C)c1C(N)=O", "Potency": "inactive"}, {"smiles": "COc1ccc(Cl)cc1C(=O)N1CCN(Cc2ccc3c(c2)OCO3)CC1", "Potency": "inconclusive: 10 µM [activator, partial curve, poor fit]"}, {"smiles": "CCCc1cnc(N2CCN(C(=O)c3ccccc3)CC2)nc1", "Potency": "inconclusive: 28.2 µM [activator, single point]"}, {"smiles": "O=C(Cc1ccc(Cl)cc1)NCC(=O)N1CCCCCC1", "Potency": "inactive"}, {"smiles": "Cc1ccc2nsnc2c1NC(=O)COc1ccccc1", "Potency": "inconclusive: 28.2 µM [activator, single point]"}, {"smiles": "CC(C)N1C(=O)C(=O)N(CC(=O)N2CCc3ccccc32)C1=O", "Potency": "inconclusive: 2.82 µM [activator, single point]"}, {"smiles": "O=C(NCc1ccccc1)c1ccc(S(=O)(=O)N2CCCc3ccccc32)cc1", "Potency": "inconclusive: 2.51 µM [activator, partial curve, poor fit]"}, {"smiles": "COc1ccc(CNC(=O)CNC(=O)N2CC(=O)Nc3ccccc32)cc1", "Potency": "inconclusive: 2.82 µM [activator, partial curve, poor fit]"}, {"smiles": "N#Cc1c(NC(=O)COC(=O)c2ccc(O)cc2O)sc2c1CCC2", "Potency": "inconclusive: 20 µM [activator, single point]"}, {"smiles": "COc1ccc(-n2ncc3c(NCC(C)C)ncnc32)cc1", "activation": "inactive: -4.25% [at 1.53 µM]"}, {"smiles": "[N-]=[N+]=CC(=O)C(O)(c1ccccc1)C(Cl)c1ccccc1", "note": "(stereo unspecified)", "Potency": "inconclusive: 2.51 µM [activator, full curve, poor fit]"}, {"smiles": "O=C(C[n+]1ccccc1)c1ccc(NC(=O)c2ccccc2)cc1", "Potency": "inactive"}, {"smiles": "Cc1ccc(S(=O)(=O)N2CCOCC2)cc1NC(=O)C1=NN(c2ccccc2)C(=O)CC1", "Potency": "inconclusive: 28.2 µM [activator, single point]"}, {"smiles": "Cc1cc(C)n(S(=O)(=O)c2ccc(F)cc2)n1", "Potency": "inconclusive: 5.01 µM [activator, single point]"}, {"smiles": "O=C(NC(=S)NCCSc1ccccc1)c1cccnc1", "Potency": "inactive"}, {"smiles": "CCOc1ccc(C(=O)NCc2ccco2)cc1OC", "Potency": "inconclusive: 6.31 µM [activator, partial curve, poor fit]"}, {"smiles": "Cc1c(C(=O)N2CCN(c3ccccn3)CC2)oc2ccccc12", "Potency": "inconclusive: 31.6 µM [activator, single point]"}, {"smiles": "Cc1ccc(-n2c(Cl)c(Cl)nc(Cl)c2=O)cc1", "Potency": "inconclusive: 5.01 µM [activator, single point]"}, {"smiles": "COc1ccc(-n2nc(C(=O)NCCCN3CCCC3=O)c3c4ccccc4n(C)c3c2=O)cc1Cl", "Potency": "inconclusive: 28.2 µM [activator, single point]"}, {"smiles": "O=C(Nc1ccc(O)c(-c2nc3ccccc3o2)c1)C1(c2ccc(Br)cc2)CCCC1", "Potency": "inactive"}, {"smiles": "CCC(=O)c1ccc(N2CCN(C(=O)c3cccs3)CC2)c(F)c1", "Potency": "inconclusive: 3.16 µM [activator, single point]"}, {"smiles": "CCOc1ccccc1NC(=O)COc1cccnc1[N+](=O)[O-]", "Potency": "inconclusive: 11.2 µM [activator, single point]"}, {"smiles": "COc1ccc(COC(=O)C2CCN(S(=O)(=O)c3ccc(F)cc3)CC2)cc1", "Potency": "inconclusive: 3.55 µM [activator, single point]"}]}]}
